# Data as given in patent US6573244B1 (priority 1999, dated 2003).
# Sequences of proteins named here, by UniProt entry; tags and fusion partners are left off. Residues count along the entry.
# UniProt P10844, 2-441 limits assumed: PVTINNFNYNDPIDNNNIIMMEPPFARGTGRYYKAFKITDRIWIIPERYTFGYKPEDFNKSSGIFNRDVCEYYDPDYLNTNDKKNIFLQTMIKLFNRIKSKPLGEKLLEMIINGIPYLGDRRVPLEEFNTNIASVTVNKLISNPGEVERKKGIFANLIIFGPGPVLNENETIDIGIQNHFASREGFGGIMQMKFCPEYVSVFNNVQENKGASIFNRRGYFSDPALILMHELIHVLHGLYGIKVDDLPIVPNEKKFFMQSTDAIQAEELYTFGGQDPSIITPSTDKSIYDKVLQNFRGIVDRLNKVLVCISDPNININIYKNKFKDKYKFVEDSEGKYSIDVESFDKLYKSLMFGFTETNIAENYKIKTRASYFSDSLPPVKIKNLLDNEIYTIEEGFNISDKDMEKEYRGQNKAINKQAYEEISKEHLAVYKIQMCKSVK
# Part of at least one peptide drawing is inferred or uncertain, most often the ends. Ends that are not written are not given here.
# Biological target: BttxB (Clostridium botulinum, UniProt P10844)
# Type: biochemical
sequence,measurement,value
TRSRAKGLQFPGLLVHRLLRKGNY [Peptide 05P],"inhibition of BttxB, in words",about the same inhibition
same,mode of inhibition of BttxB activity,competitive
same,potency relative to Substance P,more than four-fold more potent
same,slope of the inhibition curve,~−1
